{"source": "PubChem BioAssay AID1259308 (NCATS, 2017)", "purpose": "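Knock-downs that increase output of a recombinant reporter protein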 (primary screen)", "system": "human HEK293 embryonic kidney cells stably expressing firefly luciferase (HEK-CMV-Luc2-Hygro)", "reagent": "single siRNA against human genes, 0.8 pmol siRNA per well", "time to read-out": "72 h", "measurement": "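Luciferase light (ONE-Glo) measured on one replicate plate set and viability (CellTiter-Glo) on the other, scaled to a negative control siRNA, with robust z-scores and luciferase per cell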", "scale": "total luciferase, z-score: higher = more reporter protein produced", "hit rule": "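Active when the median/MAD z-score for overall luciferase is greater than 3; a gene was taken forward for validation with new siRNAs if at least two of its three siRNAs passed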", "meaning of the calls": "active = raised luciferase; inactive = no rise", "note": "Shown is a random part of about 59,000 reagents tested. In the full data, about 1,510 (2.6%) are marked active. 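Calls use total luciferase alone and ignore viability, so some active siRNAs may act by altering cell number.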 The numbers tell different reagents against one gene apart. Further read-outs or replicates are left out here. No sequences are given here."}
{"Target gene": "PTCRA", "reagent no.": 1, "total luciferase, z-score": -0.951, "outcome": "inactive"}
{"Target gene": "PTCRA", "reagent no.": 2, "total luciferase, z-score": 0.188, "outcome": "inactive"}
{"Target gene": "PTCRA", "reagent no.": 3, "total luciferase, z-score": 2.66, "outcome": "inactive"}
{"Target gene": "KRT33B", "reagent no.": 1, "total luciferase, z-score": 2.95, "outcome": "inactive"}
{"Target gene": "KRT33B", "reagent no.": 2, "total luciferase, z-score": -0.264, "outcome": "inactive"}
{"Target gene": "KRT33B", "reagent no.": 3, "total luciferase, z-score": -0.769, "outcome": "inactive"}
{"Target gene": "UBD", "reagent no.": 1, "total luciferase, z-score": -0.613, "outcome": "inactive"}
{"Target gene": "UBD", "reagent no.": 2, "total luciferase, z-score": 0.0827, "outcome": "inactive"}
{"Target gene": "UBD", "reagent no.": 3, "total luciferase, z-score": -0.0963, "outcome": "inactive"}
{"Target gene": "BCR", "reagent no.": 1, "total luciferase, z-score": -1.09, "outcome": "inactive"}
{"Target gene": "BCR", "reagent no.": 2, "total luciferase, z-score": 2.11, "outcome": "inactive"}
{"Target gene": "BCR", "reagent no.": 3, "total luciferase, z-score": 0.97, "outcome": "inactive"}
{"Target gene": "TIFA", "reagent no.": 1, "total luciferase, z-score": -1.67, "outcome": "inactive"}
{"Target gene": "TIFA", "reagent no.": 2, "total luciferase, z-score": -0.185, "outcome": "inactive"}
{"Target gene": "TIFA", "reagent no.": 3, "total luciferase, z-score": 0.121, "outcome": "inactive"}

The list goes on; the last 3 above are carried over.
{"Target gene": "TIFA", "reagent no.": 1, "total luciferase, z-score": -1.67, "outcome": "inactive"}
{"Target gene": "TIFA", "reagent no.": 2, "total luciferase, z-score": -0.185, "outcome": "inactive"}
{"Target gene": "TIFA", "reagent no.": 3, "total luciferase, z-score": 0.121, "outcome": "inactive"}
{"Target gene": "FAM107B", "reagent no.": 1, "total luciferase, z-score": -0.899, "outcome": "inactive"}
{"Target gene": "FAM107B", "reagent no.": 2, "total luciferase, z-score": -0.939, "outcome": "inactive"}
{"Target gene": "FAM107B", "reagent no.": 3, "total luciferase, z-score": -0.468, "outcome": "inactive"}
{"Target gene": "ZNHIT6", "reagent no.": 1, "total luciferase, z-score": -0.58, "outcome": "inactive"}
{"Target gene": "ZNHIT6", "reagent no.": 2, "total luciferase, z-score": 0.127, "outcome": "inactive"}
{"Target gene": "ZNHIT6", "reagent no.": 3, "total luciferase, z-score": -0.267, "outcome": "inactive"}
{"Target gene": "NR3C2", "reagent no.": 1, "total luciferase, z-score": -0.78, "outcome": "inactive"}
{"Target gene": "NR3C2", "reagent no.": 2, "total luciferase, z-score": -0.549, "outcome": "inactive"}
{"Target gene": "NR3C2", "reagent no.": 3, "total luciferase, z-score": -0.572, "outcome": "inactive"}
{"Target gene": "CAAP1", "reagent no.": 1, "total luciferase, z-score": -3.03, "outcome": "inactive"}
{"Target gene": "CAAP1", "reagent no.": 2, "total luciferase, z-score": -0.192, "outcome": "inactive"}
{"Target gene": "CAAP1", "reagent no.": 3, "total luciferase, z-score": 0.374, "outcome": "inactive"}
{"Target gene": "FRA10AC1", "reagent no.": 1, "total luciferase, z-score": 0.56, "outcome": "inactive"}
{"Target gene": "FRA10AC1", "reagent no.": 2, "total luciferase, z-score": 1.23, "outcome": "inactive"}
{"Target gene": "FRA10AC1", "reagent no.": 3, "total luciferase, z-score": -0.0254, "outcome": "inactive"}
{"Target gene": "MCEE", "reagent no.": 1, "total luciferase, z-score": -1.14, "outcome": "inactive"}
{"Target gene": "MCEE", "reagent no.": 2, "total luciferase, z-score": 2.49, "outcome": "inactive"}
{"Target gene": "MCEE", "reagent no.": 3, "total luciferase, z-score": 0.0793, "outcome": "inactive"}
